Where a name gives a salt, the structure may show the parent alone. Some of the results follow. Single values are uncertain, as repeats are few or missing.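 Labelled rat cortical synaptosomes were engulfed by primary human fetal astrocytes. Engulfment equaled a red/green ratio, corrected for calcein live-cell signal and normalized to the plate median. Compounds were toxic when calcein dropped over 30%, and reduced phagocytosis when below 70% of the median above 5 µM.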
How the values were obtained:
Human fetal astrocytes [1] = assay: loss of total cells relative to no-compound high-control median (toxicity); higher = more toxic (fewer cells); conditions: 24 h
Human fetal astrocytes [2] = assay: synaptosome phagocytosis (pHrodo/calcein intensity ratio) relative to plate median of data wells; higher = more phagocytosis; conditions: 24 h

Structure (SMILES) | loss of total cells (Human fetal astrocytes [1]; 1.39 µM) | loss of total cells (Human fetal astrocytes [1]; 2.78 µM) | loss of total cells (Human fetal astrocytes [1]; 5.56 µM) | loss of total cells (Human fetal astrocytes [1]; 11.11 µM) | loss of total cells (Human fetal astrocytes [1]; 22.22 µM) | synaptosome phagocytosis (Human fetal astrocytes [2]; 1.39 µM) | synaptosome phagocytosis (Human fetal astrocytes [2]; 2.78 µM) | synaptosome phagocytosis (Human fetal astrocytes [2]; 5.56 µM) | synaptosome phagocytosis (Human fetal astrocytes [2]; 11.11 µM) | synaptosome phagocytosis (Human fetal astrocytes [2]; 22.22 µM)
COc1ccc(NC(=O)c2ccc(-c3ccc(-c4noc(C)n4)cc3C)cc2)cc1N1CCN(C)CC1 | -20.4% | 1.4% | 4.2% | 25.7% | 28% | 82.3% | 93.3% | 75% | 72.6% | 40%
COc1cc(CNC(=O)CCCCCCC(C)C)ccc1O [Dihydrocapsaicin] | -5.2% | 28.5% | 14.6% | 10.5% | 11.2% | 115% | 104% | 105% | 92.2% | 120%
C[C@@H]1C(=O)NC2=Nc3cccc(Cl)c3CN21 [Quazinone] | -7.1% | -9.9% | -4.5% | -5% | -24.7% | 97.7% | 75.6% | 93.3% | 73.6% | 60.5%
c1ccc2c(CC3=NCCN3)cccc2c1 [Naphazoline hydrochloride] | -31.8% | 11.3% | -11.7% | -3.8% | 27.1% | 88.7% | 101% | 92.8% | 103% | 83.2%
CC(C)(C)NCC(O)c1cc(O)cc(O)c1 (stereo not given) [Terbutaline hemisulfate] | -32.6% | -15.3% | -3.9% | 1.1% | -23% | 101% | 105% | 102% | 93.6% | 97.3%
NC(=O)c1ccccc1 [Benzamide] | -9.2% | -1.2% | 9.7% | -10.3% | 13.2% | 118% | 87.4% | 96.3% | 74.2% | 75.6%

Source: the supplement of paper PMC10689618
